Source: PubChem BioAssay AID290 (DTP/NCI, 2004)
The list is a part of this screen's results and no random one: it gathers tests that were run many times, whatever their T/C, doses with no T/C, and many T/C values between a quarter and a half above the control. Further doses and runs are listed elsewhere. T/C is the treated group as % of the vehicle group. Schedules are NCI's codes, taken here to give the interval after Q, in days (D) or hours (H), and the number of doses after X. Some T/C values carry the count of animals alive at the toxicity check (mostly the fifth day); where none is given, no animal had died by that day. Some entries were tested several times; their values stand side by side, smallest first. Some entries give survivors of the animals treated and no T/C: the source holds a T/C of zero for them, seemingly a mark for toxic or unscored doses. Survivors were counted at the toxicity check, usually on the fifth day, unless a day is given; later deaths do not show.

Tested on: mice, P1798 lymphosarcoma sc, survival or tumor weight T/C
Assay: NCI In Vivo Anticancer Drug Screen. Data for tumor model P1798 Lymphosarcoma (subcutaneous) in unknown mice
Conditions: T/C endpoint: mean tumor weight, higher T/C = larger tumour
Protocol: The antitumor activity of compounds was measured in mice bearing transplantable tumors. Survival or tumor size were measured and the results are expressed as the measurement made in the treated group (T) divided by the measurement made in the vehicle treated control group (C). The tumor model used in this assay is P1798 Lymphosarcoma (subcutaneous) in unknown mice

[1] = dose: 125.0 mg/kg/injection, schedule: Q01DX010 (sc), vehicle: steroid suspending solution
[2] = dose: 250.0 mg/kg/injection, schedule: Q01DX010 (sc), vehicle: steroid suspending solution
[3] = dose: 500.0 mg/kg/injection, schedule: Q01DX010 (sc), vehicle: steroid suspending solution
[4] = dose: 1000.0 mg/kg/injection, schedule: Q01DX010 (sc), vehicle: steroid suspending solution
[5] = dose: 50.0 mg/kg/injection, schedule: Q01DX010 (ip), vehicle: carboxymethylcellulose (CMC)
[6] = dose: 25.0 mg/kg/injection, schedule: Q01DX010 (ip), vehicle: carboxymethylcellulose (CMC)
[7] = dose: 100.0 mg/kg/injection, schedule: Q01DX010 (ip), vehicle: carboxymethylcellulose (CMC)
[8] = dose: 200.0 mg/kg/injection, schedule: Q01DX010 (ip), vehicle: carboxymethylcellulose (CMC)

**Q.** Which results are given for `CC/C(=C(/CC)c1ccc(O)cc1)c1ccc(O)cc1`?
**A.** survivor count [1]: 3 of 10; survivor count [2]: 0 of 10 and 5 of 10; survivor count [3]: 0 of 10; survivor count [4]: 0 of 10

**Q.** Which survivor count (dose: 15.0 mg/kg/injection, schedule: Q01DX010 (ip), vehicle: carboxymethylcellulose (CMC)) does the source give for `[I][Hg][CH2]C1COC([CH2][Hg][I])CO1` (configuration not stated) here?
**A.** 6 of 10

**Q.** How did the survivor count [5] turn out when `O=C(O)CCCc1ccc(N(CCCl)CCCl)cc1` was run?
**A.** 6 of 10

**Q.** What does the source list for `Clc1ncnc2nc[nH]c12`?
**A.** survivor count (dose: 500.0 mg/kg/injection, schedule: Q01DX010 (ip), vehicle: carboxymethylcellulose (CMC)): 2 of 10; survivor count (dose: 1000.0 mg/kg/injection, schedule: Q01DX010 (ip), vehicle: carboxymethylcellulose (CMC)): 0 of 10

**Q.** For `CN(C)CC(=O)c1ccc(O)c(O)c1`, which T/C (dose: 62.5 mg/kg/injection, schedule: Q01DX010 (ip), vehicle: saline, evaluated on day 14) is on record?
**A.** 142 % of control

**Q.** And the T/C (dose: 125.0 mg/kg/injection, schedule: Q01DX010 (ip), vehicle: saline, evaluated on day 14)?
**A.** 141 % of control

**Q.** And the T/C (dose: 500.0 mg/kg/injection, schedule: Q01DX010 (ip), vehicle: saline, evaluated on day 14)?
**A.** 131 % of control

**Q.** What does the source list for `CCCCNc1ncnc2c1cnn2C`?
**A.** T/C (dose: 3.12 mg/kg/injection, schedule: Q01DX010 (ip), vehicle: carboxymethylcellulose (CMC), evaluated on day 14): 125 % of control; survivor count [6]: 6 of 10; survivor count [5]: 2 of 10; survivor count [7]: 0 of 10; survivor count [8]: 0 of 10

**Q.** Which survivor count (dose: 15.0 mg/kg/injection, schedule: Q01DX010 (sc), vehicle: steroid suspending solution) does the source give for `Oc1cc(CN(CCCl)CCCl)c(O)cc1CN(CCCl)CCCl` here?
**A.** 0 of 10

**Q.** With `O=C(O)C(=O)c1ccc(-c2ccccc2)cc1` as the compound, how does the survivor count (dose: 250.0 mg/kg/injection, schedule: Q01DX010 (ip), vehicle: methylcellulose (MC)) read?
**A.** 2 of 10

**Q.** What about the survivor count (dose: 500.0 mg/kg/injection, schedule: Q01DX010 (ip), vehicle: methylcellulose (MC)) of the same compound?
**A.** 0 of 10

**Q.** What does the source list for `O=c1cn[nH]c(=O)[nH]1`?
**A.** survivor count (dose: 187.5 mg/kg/injection, schedule: Q01DX010 (ip), vehicle: carboxymethylcellulose (CMC)): 5 of 10; survivor count (dose: 750.0 mg/kg/injection, schedule: Q01DX010 (ip), vehicle: carboxymethylcellulose (CMC)): 6 of 10; survivor count (dose: 1500.0 mg/kg/injection, schedule: Q01DX010 (ip), vehicle: carboxymethylcellulose (CMC)): 0 of 10

**Q.** For `C1CN1c1nc(N2CC2)nc(N2CC2)n1`, which survivor count (dose: 0.5 mg/kg/injection, schedule: Q01DX010 (ip), vehicle: saline) is on record?
**A.** 1 of 10

**Q.** `O=c1[nH]c(=O)n(C2CC(O)C(CO)O2)cc1F` (configuration not stated) was tested. Which survivor count [7] did it give?
**A.** 0 of 10

**Q.** What about the survivor count [8] of the same compound?
**A.** 0 of 10

**Q.** `CCN(CC)CCNc1ccc(C)c2sc3ccccc3c(=O)c12` was tested. Which survivor count (dose: 2.5 mg/kg/injection, schedule: Q01DX010 (ip), vehicle: methylcellulose (MC)) did it give?
**A.** 5 of 10

**Q.** What about the T/C (dose: 6.3 mg/kg/injection, schedule: Q01DX010 (ip), vehicle: methylcellulose (MC), evaluated on day 14) of the same compound?
**A.** 51, 55, 63, 106 % of control [9 of 10 alive]

**Q.** What about the T/C (dose: 12.5 mg/kg/injection, schedule: Q01DX010 (ip), vehicle: methylcellulose (MC), evaluated on day 14) of the same compound?
**A.** 57, 60, 67, 74 % of control

**Q.** And the T/C (dose: 12.5 mg/kg/injection, schedule: Q01DX010 (ip), vehicle: methylcellulose (MC), evaluated on day 20)?
**A.** 118 % of control [8 of 10 alive]

**Q.** What about the T/C (dose: 25.0 mg/kg/injection, schedule: Q01DX010 (ip), vehicle: methylcellulose (MC), evaluated on day 14) of the same compound?
**A.** 38, 49 [7 of 10 alive], 58 [9 of 10 alive], 94 % of control

**Q.** And the survivor count (dose: 25.0 mg/kg/injection, schedule: Q01DX010 (ip), vehicle: methylcellulose (MC))?
**A.** 3 of 10

**Q.** What about the survivor count (dose: 50.0 mg/kg/injection, schedule: Q01DX010 (ip), vehicle: methylcellulose (MC)) of the same compound?
**A.** 4 of 10

**Q.** And the survivor count (dose: 100.0 mg/kg/injection, schedule: Q01DX010 (ip), vehicle: methylcellulose (MC))?
**A.** 0 of 10

**Q.** With `CC12C=CC(=O)C=C1CCC1C3CCC(O)(C(=O)CO)C3(C)CC(O)C12F` (configuration not stated) as the compound, how does the survivor count (dose: 25.0 mg/kg/injection, schedule: Q01DX010 (sc), vehicle: steroid suspending solution) read?
**A.** 6 of 10

**Q.** And the survivor count (dose: 50.0 mg/kg/injection, schedule: Q01DX010 (sc), vehicle: steroid suspending solution)?
**A.** 1 of 10

**Q.** What about the survivor count (dose: 100.0 mg/kg/injection, schedule: Q01DX010 (sc), vehicle: steroid suspending solution) of the same compound?
**A.** 0 of 10

**Q.** `S=P(N1CCOCC1)(N1CC1)N1CC1` was tested. Which survivor count [6] did it give?
**A.** 0 of 10

**Q.** What about the survivor count [5] of the same compound?
**A.** 0 of 10

**Q.** What does the source list for `CC(=O)[C@@]1(O)CC[C@H]2[C@@H]3C[C@H](C)C4=CC(=O)C=C[C@]4(C)[C@@]3(F)[C@@H](O)C[C@@]21C`?
**A.** survivor count [1]: 0 of 10; survivor count [2]: 0 of 10; survivor count [3]: 0 of 10; survivor count [4]: 0 of 10
